Data reported in paper PMC7787666, “BUB-1 targets PP2A:B56 to regulate chromosome congression during meiosis I in C. elegans oocytes” (eLife, 2020).
No constants are given. Whether binding was seen depends on the method and setting. In cells and extracts the contact can be indirect. Some binding calls cover weakened binding; strength is not graded here. Tags and fused reporters may be left off the sequences shown.

Biological target: T1, BUB-1::GFP (endogenous, GFP-tagged BUB-1) (C. elegans) (UniProt Q21776)
T1 sequence: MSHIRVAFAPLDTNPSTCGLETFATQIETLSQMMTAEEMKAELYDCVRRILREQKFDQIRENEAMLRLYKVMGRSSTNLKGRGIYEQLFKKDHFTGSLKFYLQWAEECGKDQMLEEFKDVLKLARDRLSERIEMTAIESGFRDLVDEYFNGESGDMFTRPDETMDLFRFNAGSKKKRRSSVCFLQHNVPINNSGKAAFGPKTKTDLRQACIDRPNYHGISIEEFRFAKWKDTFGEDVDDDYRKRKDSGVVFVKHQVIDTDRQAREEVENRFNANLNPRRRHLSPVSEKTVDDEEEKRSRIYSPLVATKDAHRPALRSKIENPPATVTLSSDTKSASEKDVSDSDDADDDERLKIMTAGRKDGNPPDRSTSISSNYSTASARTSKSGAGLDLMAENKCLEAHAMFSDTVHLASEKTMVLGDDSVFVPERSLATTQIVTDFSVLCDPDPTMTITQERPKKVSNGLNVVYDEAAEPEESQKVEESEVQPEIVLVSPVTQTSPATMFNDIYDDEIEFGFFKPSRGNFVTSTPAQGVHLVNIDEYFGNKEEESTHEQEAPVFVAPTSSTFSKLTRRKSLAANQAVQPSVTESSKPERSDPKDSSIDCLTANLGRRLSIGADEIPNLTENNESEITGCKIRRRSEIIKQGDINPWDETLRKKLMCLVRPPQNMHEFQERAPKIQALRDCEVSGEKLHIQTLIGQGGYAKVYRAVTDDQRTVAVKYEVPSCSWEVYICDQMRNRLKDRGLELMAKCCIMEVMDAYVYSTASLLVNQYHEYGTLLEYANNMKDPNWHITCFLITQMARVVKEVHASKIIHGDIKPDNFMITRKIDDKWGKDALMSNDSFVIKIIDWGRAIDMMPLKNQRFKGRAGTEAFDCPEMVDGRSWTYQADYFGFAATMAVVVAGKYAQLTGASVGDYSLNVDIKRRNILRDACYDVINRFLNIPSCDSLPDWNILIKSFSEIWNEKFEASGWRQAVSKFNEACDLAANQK
Test: co-IP; endogenous BUB-1::GFP immunoprecipitated from C. elegans embryo extracts with a GFP nanobody coupled to magnetic beads; washes with 300 mM potassium acetate, 0.1% NP40 at 4°C; eluate on SDS-PAGE, Coomassie staining

binding: binds
B1: BUB-3 (protein, UniProt Q9XWH0 1-343)
chain: MSTYQAATIVAAPNEFRVPFPPFVQISKVQFQREAGSRLLAASGWDGTCRVYEVGKLGDISEKLVFTHGKPLLTCTFAGYNKVAFGGVDHNVKLADIETGNGTQLGSHALAVRCMEFNPMSSLIVSGGWDSSVKLWDARSYGNGAIESVNVSSSVYAMDVLKHTILVGTKDRKIFMYDSRKLREPLQVRDSPLKYQTRAVQFFPTGEAFVVSSIEGRVAVEYVDQSGEEMMKRKYAFKCHREKDTDGTELIHPVHTVAFHPKYGTFATGGADGIVNIWDPFNRKRIIQLHKFETSISSLSFNEDGSQLAIATSYQYEKEIDPSPLPNNSITIRHITDPESRPK
